Results: patent US20260151375A1, “CDK2 INHIBITORS AND METHODS OF USING THE SAME” (Cedilla Therapeutics, Inc., priority 2022, published 2026)
The match of structure and compound is tentative.

Tests used:
Kuramochi cells = test: IncuCyte Kuramochi Assay (cell proliferation); conditions: read-out: IncuCyte - Kuramochi RB-WT: IC50; Kuramochi cells labeled with mApple-H2B, 72 hours, cell count
Method: IncuCyte® assay was used to measure the effect of disclosed compounds on cell proliferation. Fluorescent microscopy images of cells were taken immediately after compound treatment and 72 hours later. Image analysis software was used to obtain cell counts as a function of compound concentration. Kuramochi cells labeled with mApple-H2B were seeded on 384-well assay-ready plates. Plates were placed in an IncuCyte® (Sartorius) and scanned at 0 and 72 hours. IncuCyte® software was used to count the number of fluorescent nuclei in each well. The fold change in cell count from 0 to 72 hours in wells treated with increasing compounds concentrations (10 pts, ½ log dilution, 20 μM top concentration) was normalized to DMSO control wells. The normalized cell counts were fit with dose response curves and a […] was calculated.

CDK2/Cyclin E1 = CDK2/Cyclin E1 (Homo sapiens, UniProt P24941); test: Caliper Assay (LabChip EZ Reader mobility shift assay), inhibition of CDK2/Cyclin E1 activity; conditions: read-out: Caliper Assay (CDK2/CCNE1): IC50; 2.5 nM CDK2/Cyclin E1(14-475), 100 μM ATP, 30 min preincubation
Method: Inhibition of CDK2/Cyclin E1 activity in the presence of compounds of the present disclosure was evaluated using a Caliper LabChip® EZ Reader mobility shift assay. In the assay, activated CDK2/Cyclin E1 catalyzes the phosphorylation of a fluorescently tagged peptide 5-FAM-QSPKKG-CONH2 (PerkinElmer, FL Peptide 18) which induces a difference in capillary electrophoresis mobility. The peptide substrate and product were measured, and the conversion ratio was used to determine the inhibition (as % activity and IC50 values) of CDK2/Cyclin E1. Reactions contained 50 mM HEPES pH 7.5, 10 mM MgCl2, 1 mM EDTA, 2 mM DTT, 0.01% Brij35, 0.5 mg/mL BSA, 0.1% DMSO, 2.5 nM CDK2/Cyclin E1(14-475), 100 μM ATP, and 1.5 μM fluorescent peptide substrate.
Dose titrations of inhibitors in 100% DMSO were combined with 3.25 nM CDK2/Cyclin E1(14-475) and 130 μM of ATP in reaction buffer. The mixtures were incubated for 30 minutes before the addition of fluorescent peptide substrate to initiate the kinase reaction. The final conditions were 2.5 nM CDK2/Cyclin E1(14-475), 100 μM ATP, and 1.5 μM fluorescent peptide. The reactions were stopped after 100 minutes with the addition of EDTA (6 mM final EDTA concentration). The stopped reactions were analyzed on a Caliper LabChip© EZ Reader II. […]

CC(c1csc(C2CCCC2)n1)c1nc(C2CN(C(=O)c3cncs3)CC23CN(C(=O)[C@H]2CC2(C)C)C3)no1 (some centres unmarked)
IC50 (Kuramochi cells): 5000 to 10000 nM | IC50 (CDK2/Cyclin E1): 10 to 100 nM
